# In patent US20220249504A1, “LONGEVITY SIGNATURES AND THEIR APPLICATIONS” (The Brigham and Women's Hospital, Inc., priority 2019, published 2022):
# Entries after “also recorded” stand apart in the source; their conditions may differ. For at least one compound, name, drawing or mass did not settle the structure.
# Legend:
# Assay type in all cases: in vivo, mouse
# C57BL/6 mice [1] = assay: Frailty index of old C57BL/6 mice on compound diet; conditions: males and females
# Experimental: (§1) Briefly, 24-28 mice per intervention were used, with an approximately equal number of males and females. Mice were first assessed with regard to frailty index and gait speed, and then randomized to make sure the experimental and control groups had the same average frailty index and gait speed. Mice were then given a diet containing a compound of interest. […] Mice were monitored daily until they died. A separate cohort of old mice was assessed for frailty index and gait speed.
# as §1, with “females. They” for “females. Mice”
# C57BL/6 mice [2] = assay: Gait speed of old C57BL/6 mice on compound diet; conditions: both sexes
# Experimental: as §1
# as §1, with “females. They” for “females. Mice”
# C57BI/6 mice = assay: Lifespan of old (2-year-old) C57BL/6 mice given a diet containing the compound; conditions: C57BL/6 mice (Selumetinib: males and females combined), given late in life, ad libitum (Selumetinib 100 mg/kg of diet, Celastrol 8 mg/kg of food)
# Experimental: as §1
# Interventions were predicted in a screen based on the gene expression longevity signatures that we developed. The predicted interventions were then verified for gene expression responses in human and mouse primary cell culture (hepatocytes) and in live mice (after mice were fed for 1 month with the diets containing these interventions). The interventions that passed these tests were further assessed for the effect on lifespan of 2-year-old C57BI/6 mice. […]
# as §1, with “females. They” for “females. Mice”, “speed.” for “speed. Mice were then given a diet containing a compound of interest.”
smiles,measurement,setting,value
"CC1=C(O)C(=O)C=C2C1=CC=C1[C@@]2(C)CC[C@@]2(C)[C@@H]3C[C@](C)(C(=O)O)CC[C@]3(C)CC[C@]12C [Celastrol, 3-Hydroxy-9β,13α-dimethyl-2-oxo-24,25,26-trinoroleana-1(10),3,5,7-tetraen-29-oic acid]",Effect on frailty index,C57BL/6 mice [1],does not affect
same,Effect on gait speed,C57BL/6 mice [2],does not affect
same,Effect on lifespan,C57BI/6 mice,may extend lifespan; also recorded: lifespan-extending effect
